Laboratory results: PubChem BioAssay AID1224828 (NIAID, 2016)

Assay: 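Regulators linking TLR4 signalling to p65 nuclear translocation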 (primary screen)
Cells: mouse RAW264.7 G9 macrophage reporter cells (GFP-p65, Tnf promoter-mCherry)
Knock-down reagent: siRNA pool against mouse genes, 100 nM
Duration: 2 days siRNA transfection, then 40 min LPS before fixation
Conditions: LPS (Salmonella minnesota R595) at 10 ng/ml
Read-out: 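Microscopy ratio of nuclear to perinuclear-ring GFP-p65 signal, scaled to the plate median; gene score is the average of two replicate robust z-scores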
Direction: p65 translocation robust z-score: higher = more nuclear NF-kappaB p65 after LPS than the plate median; nuclear/cytoplasmic p65 ratio: higher = more nuclear NF-kappaB p65
Hit rule: 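Active if robust z is above 3.3 (negative regulators) or below -1.56, the Tlr4 control median (positive regulators); activity score 50 or more; control wells not called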
Calls: active = hit (p65 shift raised or lowered); inactive = no clear change
This is one part, drawn at random, of about 17,000 reagents. Of all reagents, 762 (4.5%) were called active. 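Active calls include both raised and lowered p65 entry, mostly lowered; wells with fewer than 50 cells lack a z-score.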 Raw values vary from plate to plate and are shown uncorrected. Reagents against one gene are numbered here. A reagent listed more than once was tested more than once; the source does not tell the runs apart.

target | reagent | p65 translocation robust z-score | nuclear/cytoplasmic p65 ratio, rep 1 | nuclear/cytoplasmic p65 ratio, rep 2 | low cell count flag | Call
Ranbp3l (RAN binding protein 3-like) | 1 | 0.25 | 1.44 | 1.59 | enough cells to score | inactive
Chil6 (chitinase-like 6) | 1 | 1.02 | 1.61 | 1.62 | enough cells to score | inactive
Or5b113 (olfactory receptor family 5 subfamily B member 113) | 1 | 0.38 | 1.7 | 1.44 | enough cells to score | inactive
Cadm4 (cell adhesion molecule 4) | 1 | -1.65 | 1.33 | 1.2 | enough cells to score | active
Dach1 (dachshund family transcription factor 1) | 1 | 2.2 | 1.83 | 1.59 | enough cells to score | inactive
Tulp4 (TUB like protein 4) | 1 | – | 1.3 | 1.26 | fewer than 50 cells per well; well left out of scoring | inactive
Cntln (centlein, centrosomal protein) | 1 | -0.88 | 1.51 | 1.36 | enough cells to score | inactive
Cntln (centlein, centrosomal protein) | 2 | -0.31 | 1.51 | 1.51 | enough cells to score | inactive
Pikfyve (phosphoinositide kinase, FYVE type zinc finger containing) | 1 | 0 | 1.46 | 1.45 | enough cells to score | inactive
Ell2 (elongation factor for RNA polymerase II 2) | 1 | – | 1.55 | 1.37 | fewer than 50 cells per well; well left out of scoring | inactive
Erp29 (endoplasmic reticulum protein 29) | 1 | -1.84 | 1.34 | 1.19 | enough cells to score | active
Or4f61 (olfactory receptor family 4 subfamily F member 61) | 1 | 2.73 | 1.99 | 1.81 | enough cells to score | inactive
Caprin1 (cell cycle associated protein 1) | 1 | 1.26 | 1.83 | 1.73 | enough cells to score | inactive
Tmem203 (transmembrane protein 203) | 1 | 1.94 | 1.81 | 2.18 | enough cells to score | inactive
Rnf144a (ring finger protein 144A) | 1 | -0.42 | 1.51 | 1.4 | enough cells to score | inactive

An excerpt from above, showing only “low cell count flag”:
Erp29 (endoplasmic reticulum protein 29): enough cells to score
Or4f61 (olfactory receptor family 4 subfamily F member 61): enough cells to score
Caprin1 (cell cycle associated protein 1): enough cells to score

Continued.
target | reagent | p65 translocation robust z-score | nuclear/cytoplasmic p65 ratio, rep 1 | nuclear/cytoplasmic p65 ratio, rep 2 | low cell count flag | Call
Rtn1 (reticulon 1) | 1 | -2.03 | 1.12 | 0.992 | enough cells to score | active
Nek3 (NIMA (never in mitosis gene a)-related expressed kinase 3) | 1 | 2.44 | 1.82 | 1.68 | enough cells to score | inactive
Hsdl1 (hydroxysteroid dehydrogenase like 1) | 1 | 0.41 | 1.4 | 1.52 | enough cells to score | inactive
Htra2 (HtrA serine peptidase 2) | 1 | -0.43 | 1.42 | 1.37 | enough cells to score | inactive
Rras (RAS oncogene related) | 1 | -0.09 | 1.45 | 1.56 | enough cells to score | inactive
Cd44 (CD44 antigen) | 1 | 0.57 | 1.57 | 1.45 | enough cells to score | inactive
Cdv3 | 1 | -1.06 | 1.48 | 1.56 | enough cells to score | inactive
Pcdhga10 (protocadherin gamma subfamily A, 10) | 1 | -0.2 | 1.41 | 1.23 | enough cells to score | inactive
Fam131b (family with sequence similarity 131, member B) | 1 | – | 1.36 | 1.4 | fewer than 50 cells per well; well left out of scoring | inactive
Wnt3 (WNT family member 3) | 1 | -0.83 | 1.39 | 1.49 | enough cells to score | inactive
Strc (stereocilin) | 1 | -0.81 | 1.44 | 1.43 | enough cells to score | inactive
Hs6st2 (heparan sulfate 6-O-sulfotransferase 2) | 1 | -0.45 | 1.65 | 1.42 | enough cells to score | inactive
Has3 (hyaluronan synthase 3) | 1 | 1.28 | 1.92 | 1.66 | enough cells to score | inactive
A430085C19 (retired record) | 1 | -1.23 | 1.21 | 1.36 | enough cells to score | inactive
Gucy1b2 (guanylate cyclase 1, soluble, beta 2) | 1 | -1.67 | 1.38 | 1.31 | enough cells to score | active
Cd1d1 (CD1d1 antigen) | 1 | -0.47 | 1.46 | 1.32 | enough cells to score | inactive
Arhgef10l (Rho guanine nucleotide exchange factor 10-like) | 1 | -1.21 | 1.1 | 1.12 | enough cells to score | inactive
Garnl3 (GTPase activating RANGAP domain-like 3) | 1 | -1.66 | 1.34 | 1.24 | enough cells to score | active
Tle6 (transducin-like enhancer of split 6) | 1 | 0.73 | 1.4 | 1.32 | enough cells to score | inactive
Tgm1 (transglutaminase 1, K polypeptide) | 1 | -0.23 | 1.46 | 1.51 | enough cells to score | inactive
Atf3 (activating transcription factor 3) | 1 | -1.72 | 1.36 | 1.36 | enough cells to score | active
Lrrk2 (leucine-rich repeat kinase 2) | 1 | – | 1.85 | 1.44 | fewer than 50 cells per well; well left out of scoring | inactive
Lrrk2 (leucine-rich repeat kinase 2) | 1 | – | 1.35 | 1.23 | fewer than 50 cells per well; well left out of scoring | inactive
Hnrnpl (heterogeneous nuclear ribonucleoprotein L) | 1 | -1.05 | 1.44 | 1.44 | enough cells to score | inactive
Nelfe (negative elongation factor complex member E, Rdbp) | 1 | -0.59 | 1.34 | 1.16 | enough cells to score | inactive
